# Measured values as given in publication PMC9546906.
# Protein sequences, listed by entry. Tags and fused reporters are not part of them. Lines headed by an entry give the natural chain unless they say otherwise; changes in a name come on top. Chains listed by the source or under a name are the forms on record and can include a tag or linker.
# UniProt P63330: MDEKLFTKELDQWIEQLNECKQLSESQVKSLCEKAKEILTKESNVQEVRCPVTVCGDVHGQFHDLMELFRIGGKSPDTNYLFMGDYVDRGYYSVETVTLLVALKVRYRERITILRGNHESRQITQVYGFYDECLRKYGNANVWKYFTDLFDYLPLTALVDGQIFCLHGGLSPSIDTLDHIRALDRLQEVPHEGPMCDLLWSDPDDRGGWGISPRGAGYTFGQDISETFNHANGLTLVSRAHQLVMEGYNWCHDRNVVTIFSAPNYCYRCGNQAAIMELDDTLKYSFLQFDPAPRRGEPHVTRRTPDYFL
# UniProt Q9EQU5: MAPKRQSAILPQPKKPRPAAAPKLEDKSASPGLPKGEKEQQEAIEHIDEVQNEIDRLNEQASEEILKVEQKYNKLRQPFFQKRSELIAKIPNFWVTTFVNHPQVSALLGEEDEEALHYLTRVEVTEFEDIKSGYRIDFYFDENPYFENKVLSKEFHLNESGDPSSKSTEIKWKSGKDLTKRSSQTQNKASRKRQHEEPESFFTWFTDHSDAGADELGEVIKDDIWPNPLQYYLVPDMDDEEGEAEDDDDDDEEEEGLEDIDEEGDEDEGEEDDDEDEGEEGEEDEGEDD
# HA-tagged Set isoform 2 (Q9EQU5-2, form named): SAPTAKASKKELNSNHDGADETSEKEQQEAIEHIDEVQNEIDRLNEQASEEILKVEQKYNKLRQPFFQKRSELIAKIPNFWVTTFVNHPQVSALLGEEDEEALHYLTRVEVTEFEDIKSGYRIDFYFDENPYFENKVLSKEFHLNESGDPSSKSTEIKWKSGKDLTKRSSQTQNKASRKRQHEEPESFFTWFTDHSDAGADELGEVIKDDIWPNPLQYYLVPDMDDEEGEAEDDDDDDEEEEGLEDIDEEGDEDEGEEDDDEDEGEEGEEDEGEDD
# UniProt P97820: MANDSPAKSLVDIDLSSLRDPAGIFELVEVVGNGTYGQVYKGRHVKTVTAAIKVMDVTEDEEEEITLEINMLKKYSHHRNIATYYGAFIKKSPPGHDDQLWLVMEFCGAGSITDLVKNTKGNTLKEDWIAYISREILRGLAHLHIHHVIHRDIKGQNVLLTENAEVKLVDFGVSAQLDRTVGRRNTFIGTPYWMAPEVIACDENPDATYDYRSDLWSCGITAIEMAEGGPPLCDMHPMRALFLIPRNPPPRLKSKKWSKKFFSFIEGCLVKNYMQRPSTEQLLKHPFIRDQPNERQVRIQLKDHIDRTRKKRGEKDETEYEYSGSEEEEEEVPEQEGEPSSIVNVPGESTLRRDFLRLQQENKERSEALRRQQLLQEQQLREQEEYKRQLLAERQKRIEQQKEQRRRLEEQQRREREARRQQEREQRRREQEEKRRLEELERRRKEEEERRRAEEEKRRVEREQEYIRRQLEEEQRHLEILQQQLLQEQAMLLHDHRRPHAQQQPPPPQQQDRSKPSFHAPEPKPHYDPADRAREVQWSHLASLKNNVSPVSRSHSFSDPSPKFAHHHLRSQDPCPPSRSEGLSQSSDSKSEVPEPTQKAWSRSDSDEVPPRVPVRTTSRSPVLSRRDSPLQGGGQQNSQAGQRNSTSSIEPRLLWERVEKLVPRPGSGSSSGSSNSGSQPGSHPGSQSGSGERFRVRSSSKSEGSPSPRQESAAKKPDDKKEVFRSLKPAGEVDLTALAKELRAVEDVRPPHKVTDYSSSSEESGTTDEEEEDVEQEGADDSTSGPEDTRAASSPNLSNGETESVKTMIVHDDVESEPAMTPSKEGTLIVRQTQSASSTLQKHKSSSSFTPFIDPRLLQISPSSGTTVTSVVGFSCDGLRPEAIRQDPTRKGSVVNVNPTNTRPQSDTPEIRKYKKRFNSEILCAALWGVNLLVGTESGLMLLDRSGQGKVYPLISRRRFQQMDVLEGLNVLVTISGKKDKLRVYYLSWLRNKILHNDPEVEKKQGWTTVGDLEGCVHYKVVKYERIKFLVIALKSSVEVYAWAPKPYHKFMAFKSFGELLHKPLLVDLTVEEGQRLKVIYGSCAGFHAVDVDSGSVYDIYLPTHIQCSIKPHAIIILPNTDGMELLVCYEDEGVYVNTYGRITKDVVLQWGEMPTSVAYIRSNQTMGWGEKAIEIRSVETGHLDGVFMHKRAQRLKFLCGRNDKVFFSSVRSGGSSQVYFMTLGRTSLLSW
# No constants are given. Whether binding was seen depends on the method and setting. In cells and extracts the contact can be indirect. Binding calls can cover weak binding; strength is not graded here.
# Biological target: protein phosphatase 2A (PP2A) (mouse (endogenous in mouse aortic VSMCs)) (UniProt P63330)
# Experiment: co-IP; extracts of control or RhoA cKO VSMCs stimulated with AngII for 24 h (also with scramble or Set siRNA, or transfected with HA-Set1 and HA-Set2), immunoprecipitated with anti-PP2A antibody or control IgG, protein G Sepharose, washed with RIPA buffer, western blot
row,binding,Substance
1,binds,HA-tagged Set isoform 1 (from UniProt Q9EQU5 2-289)
2,binds,HA-tagged Set isoform 2 (from UniProt Q9EQU5-2 2-277)
3,binds,Set (endogenous) (from UniProt Q9EQU5 1-289)
4,binds,mitogen-activated protein kinase kinase kinase kinase 4 (MAP4K4) (from UniProt P97820 1-1233) (enzyme)
